Test results: patent US20070066580A1, “Novel aldosterone antagonists and uses thereof” (Recordati Ireland Limited, priority 2005, published 2007)
At least one compound was matched to its structure with a doubt left.

Target: T1, aldosterone receptor (Rattus norvegicus, UniProt P22199)
T1 construct: from tissue; host or cells: whole animal: adrenalectomised male Sprague-Dawley rats
T1 sequence (P22199 1-981): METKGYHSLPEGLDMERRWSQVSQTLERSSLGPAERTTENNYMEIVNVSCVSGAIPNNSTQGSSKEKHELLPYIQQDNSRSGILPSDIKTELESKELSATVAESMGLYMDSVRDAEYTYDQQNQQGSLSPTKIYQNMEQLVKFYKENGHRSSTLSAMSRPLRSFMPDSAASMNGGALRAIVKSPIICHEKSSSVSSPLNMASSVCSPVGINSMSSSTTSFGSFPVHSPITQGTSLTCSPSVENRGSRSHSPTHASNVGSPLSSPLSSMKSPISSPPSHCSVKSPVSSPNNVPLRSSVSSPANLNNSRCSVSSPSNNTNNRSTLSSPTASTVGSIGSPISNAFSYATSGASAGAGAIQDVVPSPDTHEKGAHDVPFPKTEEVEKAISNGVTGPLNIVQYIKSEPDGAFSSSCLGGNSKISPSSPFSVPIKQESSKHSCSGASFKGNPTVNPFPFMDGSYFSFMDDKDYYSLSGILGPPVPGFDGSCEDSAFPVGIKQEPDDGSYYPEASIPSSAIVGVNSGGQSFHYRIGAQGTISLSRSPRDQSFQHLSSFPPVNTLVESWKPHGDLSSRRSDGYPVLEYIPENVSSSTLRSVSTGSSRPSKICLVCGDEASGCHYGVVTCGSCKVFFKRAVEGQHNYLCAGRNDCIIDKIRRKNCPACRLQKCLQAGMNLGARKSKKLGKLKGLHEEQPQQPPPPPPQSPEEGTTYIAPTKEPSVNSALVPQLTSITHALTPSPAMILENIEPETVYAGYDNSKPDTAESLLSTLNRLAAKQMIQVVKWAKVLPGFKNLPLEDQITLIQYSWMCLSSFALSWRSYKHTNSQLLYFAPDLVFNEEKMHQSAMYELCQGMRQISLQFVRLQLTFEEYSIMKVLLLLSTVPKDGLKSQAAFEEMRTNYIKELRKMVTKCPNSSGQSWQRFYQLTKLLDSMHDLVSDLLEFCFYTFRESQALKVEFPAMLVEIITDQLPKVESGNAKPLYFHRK
Test: Kagawa model, urinary Na+/K+ ratio in adrenalectomised rats given aldosterone
Assay type: in vivo
Conditions: adrenalectomized rats, oral gavage, aldosterone 3 μg/animal s.c.
Excerpt: To evaluate the in vivo activity of test compounds as aldosterone receptor antagonists, the Kagawa model was used, with some modifications. The original model first described by Kagawa (Endocrinology 1960; 67:125-131) has been widely utilised and reported in several published papers.
Bilateral adrenalectomised male Spague-Dawley rats aging approximately 5 weeks and weighing between 150 and 170 g at the time of surgery were obtained from Charles River (UK) Ltd., Margate, Kent. Following adrenalectomy, animals were maintained with standard diet and 0.9% (w/v) saline to drink. Saline replaces sodium ions lost due to the absence of the adrenal glands.
The animals were maintained for three days in standard condition and were trained in metabolic cages on one occasion prior to the test day for approximately 5 hours.
Food was withheld from animals overnight prior to dosing. Saline was available ad libitum.
Approximately 2 hours before dosing, saline was removed from the animals to ensure similar hydration levels. […]
The cumulative urine volume was measured and collected for analysis at 0-3 and 3-6 hours post-aldosterone. Urine was analysed for urinary sodium and potassium concentration. […]
Mean Na^+:K^+ ratios from each group were calculated. […]
The data were analysed using one-way Analysis of Variance (ANOVA). […]

## CCS[C@@H]1CC2=CC(=O)CC[C@]2(C)[C@@]23O[C@@H]2C[C@@]2(C)C(CC[C@@]24CCC(=O)O4)C13 (stereo partly shown) [Example 7]
  urinary Na+/K+ ratio relative to animals only receiving aldosterone: statistically significant increase
